Reference: PubChem BioAssay AID1508597 (Cure First, 2020)

- Screen: 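Genes whose silencing sensitises or protects ovarian cancer cells against rucaparib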 (primary screen)
- Cell system: human ovarian carcinoma lines grown from tumours: OCI-P5x (papillary serous) and OCI-C5x (clear cell)
- Knock-down reagent: siRNA pool against human genes, 1.25 pmol siRNA per well
- Timing: 72 h or 96 h, depending on the cell culture
- Treatment: rucaparib 20 µM (about IC30) or vehicle, present until read-out
- Measurement: 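ATP luminescence measured at 72 or 96 h according to the culture, then normalised and expressed as percent viability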
- Scale: viability, normalised: higher = more viable cells remaining
- Call rule: 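Active when normalised viability falls below 80 percent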
- Meaning of the calls: active = viability under 80%; inactive = viability 80% or more
The whole screen tested about 2,100 reagents; below is an unselected part. 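Calls flag viability under 80% in either arm, not effects specific to rucaparib; the reference for percent is not stated.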 Not given: the 100% reference.

gene	rucaparib or vehicle	cell line	technical replicate	viability, normalised (%)	Outcome
GK2	Rucaparib	OCI-C5x (clear cell)	1	46.9	active
GK2	Rucaparib	OCI-C5x (clear cell)	2	44.8	active
GK2	Rucaparib	OCI-C5x (clear cell)	3	34.2	active
GK2	Rucaparib	OCI-P5x (serous)	1	91.5	inactive
GK2	Rucaparib	OCI-P5x (serous)	2	82.8	inactive
GK2	Rucaparib	OCI-P5x (serous)	3	71.9	active
GK2	Vehicle	OCI-C5x (clear cell)	1	37.5	active
GK2	Vehicle	OCI-C5x (clear cell)	2	35.8	active
GK2	Vehicle	OCI-C5x (clear cell)	3	29.6	active
GK2	Vehicle	OCI-P5x (serous)	1	59.4	active
GK2	Vehicle	OCI-P5x (serous)	2	57.8	active
GK2	Vehicle	OCI-P5x (serous)	3	65.8	active
EID2	Rucaparib	OCI-C5x (clear cell)	1	59.9	active
EID2	Rucaparib	OCI-C5x (clear cell)	2	62	active
EID2	Rucaparib	OCI-C5x (clear cell)	3	55.1	active
EID2	Rucaparib	OCI-P5x (serous)	1	55.4	active
EID2	Rucaparib	OCI-P5x (serous)	2	49.8	active
EID2	Rucaparib	OCI-P5x (serous)	3	49.9	active
EID2	Vehicle	OCI-C5x (clear cell)	1	52.4	active
EID2	Vehicle	OCI-C5x (clear cell)	2	56	active
EID2	Vehicle	OCI-C5x (clear cell)	3	43.3	active
EID2	Vehicle	OCI-P5x (serous)	1	61.8	active
EID2	Vehicle	OCI-P5x (serous)	2	64.1	active
EID2	Vehicle	OCI-P5x (serous)	3	81.3	inactive
AKT3	Rucaparib	OCI-C5x (clear cell)	1	63.5	active
AKT3	Rucaparib	OCI-C5x (clear cell)	2	57.2	active
AKT3	Rucaparib	OCI-C5x (clear cell)	3	78.8	active
AKT3	Rucaparib	OCI-P5x (serous)	1	92.8	inactive
AKT3	Rucaparib	OCI-P5x (serous)	2	96.7	inactive
AKT3	Rucaparib	OCI-P5x (serous)	3	103	inactive
AKT3	Vehicle	OCI-C5x (clear cell)	1	94.4	inactive
AKT3	Vehicle	OCI-C5x (clear cell)	2	86.1	inactive
AKT3	Vehicle	OCI-C5x (clear cell)	3	79	active
AKT3	Vehicle	OCI-P5x (serous)	1	99.3	inactive
AKT3	Vehicle	OCI-P5x (serous)	2	106	inactive
AKT3	Vehicle	OCI-P5x (serous)	3	101	inactive
DTYMK	Rucaparib	OCI-C5x (clear cell)	1	59.5	active
DTYMK	Rucaparib	OCI-C5x (clear cell)	2	56.4	active
DTYMK	Rucaparib	OCI-C5x (clear cell)	3	51.1	active
DTYMK	Rucaparib	OCI-P5x (serous)	1	80.5	inactive
DTYMK	Rucaparib	OCI-P5x (serous)	2	105	inactive
DTYMK	Rucaparib	OCI-P5x (serous)	3	99.5	inactive
DTYMK	Vehicle	OCI-C5x (clear cell)	1	47.6	active
DTYMK	Vehicle	OCI-C5x (clear cell)	2	52.4	active
DTYMK	Vehicle	OCI-C5x (clear cell)	3	34.3	active
DTYMK	Vehicle	OCI-P5x (serous)	1	72.8	active
DTYMK	Vehicle	OCI-P5x (serous)	2	74.8	active
DTYMK	Vehicle	OCI-P5x (serous)	3	93.5	inactive
RPS6KB2	Rucaparib	OCI-C5x (clear cell)	1	71	active
RPS6KB2	Rucaparib	OCI-C5x (clear cell)	2	55.6	active
RPS6KB2	Rucaparib	OCI-C5x (clear cell)	3	59.9	active
RPS6KB2	Rucaparib	OCI-P5x (serous)	1	90.3	inactive
RPS6KB2	Rucaparib	OCI-P5x (serous)	2	92.4	inactive
RPS6KB2	Rucaparib	OCI-P5x (serous)	3	80.6	inactive
RPS6KB2	Vehicle	OCI-C5x (clear cell)	1	57.4	active
RPS6KB2	Vehicle	OCI-C5x (clear cell)	2	59.2	active
RPS6KB2	Vehicle	OCI-C5x (clear cell)	3	39	active
RPS6KB2	Vehicle	OCI-P5x (serous)	1	80.2	inactive
RPS6KB2	Vehicle	OCI-P5x (serous)	2	86.5	inactive
RPS6KB2	Vehicle	OCI-P5x (serous)	3	82.4	inactive
TSPYL2	Rucaparib	OCI-C5x (clear cell)	1	67.7	active
TSPYL2	Rucaparib	OCI-C5x (clear cell)	2	64	active
TSPYL2	Rucaparib	OCI-C5x (clear cell)	3	46.7	active
TSPYL2	Rucaparib	OCI-P5x (serous)	1	86.4	inactive
TSPYL2	Rucaparib	OCI-P5x (serous)	2	77	active
TSPYL2	Rucaparib	OCI-P5x (serous)	3	60.1	active
TSPYL2	Vehicle	OCI-C5x (clear cell)	1	55.6	active
TSPYL2	Vehicle	OCI-C5x (clear cell)	2	52.6	active
TSPYL2	Vehicle	OCI-C5x (clear cell)	3	43.4	active
TSPYL2	Vehicle	OCI-P5x (serous)	1	76.7	active
TSPYL2	Vehicle	OCI-P5x (serous)	2	73.2	active
TSPYL2	Vehicle	OCI-P5x (serous)	3	74.8	active
PRMT3	Rucaparib	OCI-C5x (clear cell)	1	55.1	active
PRMT3	Rucaparib	OCI-C5x (clear cell)	2	44	active
PRMT3	Rucaparib	OCI-C5x (clear cell)	3	39.6	active
PRMT3	Rucaparib	OCI-P5x (serous)	1	51.9	active
PRMT3	Rucaparib	OCI-P5x (serous)	2	53.3	active
PRMT3	Rucaparib	OCI-P5x (serous)	3	61.8	active
PRMT3	Vehicle	OCI-C5x (clear cell)	1	51.2	active
PRMT3	Vehicle	OCI-C5x (clear cell)	2	38.5	active
PRMT3	Vehicle	OCI-C5x (clear cell)	3	48.1	active
PRMT3	Vehicle	OCI-P5x (serous)	1	76.6	active
PRMT3	Vehicle	OCI-P5x (serous)	2	77.8	active
PRMT3	Vehicle	OCI-P5x (serous)	3	105	inactive

Sorted by “viability, normalised (%)” (highest first): 5 of the entries above.
gene	rucaparib or vehicle	cell line	technical replicate	viability, normalised (%)	Outcome
GK2	Vehicle	OCI-P5x (serous)	3	65.8	active
EID2	Rucaparib	OCI-C5x (clear cell)	2	62	active
EID2	Rucaparib	OCI-C5x (clear cell)	1	59.9	active
GK2	Vehicle	OCI-P5x (serous)	2	57.8	active
EID2	Rucaparib	OCI-C5x (clear cell)	3	55.1	active
